The results in this text go back to patent publication US20240041987A1 (COLZYX AB, priority 2020, published 2024).

One data set is described as follows: peptide made by a vendor. To be noted: whole synthesis, quantitative chromatography, LC-MS, acetate.
Another data set is described as follows: peptide synthesis. To be noted: whole synthesis, quantitative chromatography, LC-MS, acetate.

End groups of sequences in plain letters are not given here.

Regarding “SFVARNTFKRVRNGFLMRKVAVFFSNTPTRASP (SFV33)”, the “final HPLC purity” value in “peptide made by a vendor” was over 95%. The “final purity (method not given)” value in the data set “peptide synthesis” amounted to 96%.
The like results for GVRPDGFAHIRDFVSRIVRRLNIGPSKV (GVR28) were, in that order, over 95% and 96%.
